Results reported in patent publication US8129532B2, “Amino(oligo)thiophene dyes, preparation thereof, and optical methods of use” (The University of Connecticut, priority 2007, dated 2012).

Tested on: layer V pyramidal neurons
Test: Intracellular dye spread (diffusion, loading, incubation, simple filling) in pyramidal neurons
Format: cell-based, Sprague Dawley rats
Details: for Simple filling time, somatic ROI / Simple filling time: 400 μM dye in pipette kept on cell; for Simple filling time, somatic ROI: somatic ROI (footnote a); for Simple filling time: time to good optical signals (single AP); for Incubation time: after dye loading; for Incubation time / Dye loading time: stopped at experimenter's discretion; for Dye loading time: cells with good optical signals from basal dendrites

| SMILES | Simple filling time, somatic ROI | Simple filling time | Incubation time | Dye loading time |
| --- | --- | --- | --- | --- |
| CCCCN(CCCC)c1ccc2cc(/C=C/C=C/c3cc[n+](CCC[N+](C)(C)C)c4ccccc34)ccc2c1.[Br-].[Br-] [di-4-ANBDQPQ, Di-4-ANBDQPQ, reference compound] | 46.5 ± 12.0^a min |  |  |  |
| CCN(CC)c1ccc(-c2ccc(-c3ccc(/C=C/c4cc[n+](CCC[N+](CC)(CC)CC)cc4)s3)s2)s1 [PY-1268] | 55.0 ± 8.2^a min |  |  |  |
| CN(C)c1ccc(/C=C/c2ccc(/C=C/c3cc[n+](CCC[N+](C)(C)C)c4ccccc34)o2)cc1 [JPW-3080] |  | 43.1 ± 4.5 min | 54.0 ± 35.2 min | 26.8 ± 3.4 min |
| CCN(CC)c1ccc(-c2ccc(/C=C/c3cc[n+](CCC[N+](CC)(CC)CC)cc3)s2)s1 [PY-1261, Di-2-BTEPPTEA] |  | 32.5 ± 3.5 min |  |  |
| CCN(CC)c1ccc2cc(/C=C/C=C/c3cc[n+](CCC[N+](C)(C)C)c4ccccc34)ccc2c1.[Br-].[Br-] [JPW-4090, Di-2-ANBDQPQ] |  | 58.3 ± 12.2 min | 69.5 ± 37.8 min | 34.9 ± 11.1 min |
| CCCN(CCC)c1ccc(-c2ccc(/C=C/c3cc[n+](CCC[N+](CC)(CC)CC)cc3)s2)s1 [PY-1286, Di-3-BTEPPTEA] |  | 50.0 ± 10.0 min | 83.3 ± 43.7 min | 52.3 ± 6.7 min |
| CCCCN(CCCC)c1ccc(-c2ccc(/C=C/c3cc[n+](CCC[N+](CC)(CC)CC)cc3)s2)s1 [PY-1266, Di-4-BTEPPTEA] |  | 45.8 ± 8.2 min | 58.5 ± 13.4 min | 32.5 ± 7.8 min |
